Measurements: PubChem BioAssay AID330 (DTP/NCI, 2004)
The list shows only some results of the screen, not a fair sample: it gathers tests that were run many times, whatever their T/C, doses with no T/C, and many T/C values between a quarter and a half above the control. Further doses and runs are listed elsewhere. T/C: endpoint of the treated group in % of that of the vehicle group. Some entries give survivors of the animals treated and no T/C: the source files T/C as zero there, which appears to mark a toxic dose or a test without result, not a measured value. Some doses without a T/C left all or most animals alive at the check, yet need not have been tolerated: the source hardly ever lists a survival T/C far under the control, and the zero likely stands for such cases as well. Survivors were counted at the toxicity check, usually on the fifth day, unless a day is given; later deaths do not show. Schedules are NCI's codes, taken here to give the interval after Q, in days (D) or hours (H), and the number of doses after X. For survival time, this PubChem deposit counts one and a half times the control or more as active, and values a quarter to a half above the control carry no call in these data; other NCI protocols may use other cut-offs.

Tested on: P388 leukemia ip, CD2F1 mice, survival T/C
Assay: NCI In Vivo Anticancer Drug Screen. Data for tumor model P388 Leukemia (intraperitoneal) in CD2F1 (CDF1) mice
Conditions: T/C endpoint: median survival time, higher T/C = longer survival
[1] = dose: 60.0 mg/kg/injection, schedule: Q01DX005 (ip), vehicle: saline with Tween-80
[2] = dose: 120.0 mg/kg/injection, schedule: Q01DX005 (ip), vehicle: saline with Tween-80
[3] = dose: 240.0 mg/kg/injection, schedule: Q01DX005 (ip), vehicle: saline with Tween-80
[4] = dose: 200.0 mg/kg/injection, schedule: Q04DX003 (ip), vehicle: Klucel (hydroxypropylcellulose) (HPC)

## CC(CCl)N(CCCl)Cc1cccc(Nc2ncnc3nc[nH]c23)c1 (stereo not drawn)
dose: 0.2 mg/kg/injection, schedule: Q01DX009 (ip), vehicle: saline
  T/C: 127 % of control
dose: 0.3 mg/kg/injection, schedule: Q01DX009 (ip), vehicle: saline
  T/C: 127 % of control
dose: 0.45 mg/kg/injection, schedule: Q01DX009 (ip), vehicle: saline
  T/C: 145 % of control
dose: 0.5 mg/kg/injection, schedule: Q04DX003 (ip), vehicle: saline
  T/C: 127 % of control

## C[N+]1(CCC(/C=C/c2ccc([N+](=O)[O-])cc2)=N\O)CCOCC1
[1]
  survivor count: 0 of 6
[2]
  survivor count: 0 of 6
[3]
  survivor count: 0 of 6

## Cc1cc2c(cc1C)Nc1oc3ccc4ccccc4c3c(=O)c1C=N2
dose: 50.0 mg/kg/injection, schedule: Q01DX005 (ip), vehicle: Klucel (hydroxypropylcellulose) (HPC)
  survivor count: 6 of 6
dose: 100.0 mg/kg/injection, schedule: Q01DX005 (ip), vehicle: Klucel (hydroxypropylcellulose) (HPC)
  survivor count: 6 of 6

## NS(=O)(=O)c1ccc(Nc2c3ccccc3nc3ccccc23)cc1
dose: 50.0 mg/kg/injection, schedule: Q04DX003 (ip), vehicle: Klucel (hydroxypropylcellulose) (HPC)
  survivor count: 6 of 6
dose: 59.0 mg/kg/injection, schedule: Q04DX003 (ip), vehicle: Klucel (hydroxypropylcellulose) (HPC)
  survivor count: 6 of 6
[4]
  survivor count: 6 of 6

## CS(=O)(=O)OCC(O)C(O)C(OS(C)(=O)=O)C(O)COS(C)(=O)=O (stereo not drawn)
[4]
  survivor count: 6 of 6

## CCC1(CCC(=O)OC)CCC[N+]2=C1c1[nH]c3ccc(Br)cc3c1CC2 (stereo not drawn)
dose: 100.0 mg/kg/injection, schedule: Q01DX005 (ip), vehicle: saline
  survivor count: 0 of 6
dose: 200.0 mg/kg/injection, schedule: Q01DX005 (ip), vehicle: saline
  survivor count: 0 of 6

## CC(CCCSC(=N)N)SC(=N)N (stereo not drawn)
dose: 100.0 mg/kg/injection, schedule: Q01DX009 (ip), vehicle: saline
  survivor count: 3 of 6

## O=[N+]([O-])c1ccc(Oc2ccccc2[N+](=O)[O-])nc1
dose: 50.0 mg/kg/injection, schedule: Q01DX009 (ip), vehicle: Klucel (hydroxypropylcellulose) (HPC)
  survivor count: 6 of 6
dose: 100.0 mg/kg/injection, schedule: Q01DX009 (ip), vehicle: Klucel (hydroxypropylcellulose) (HPC)
  survivor count: 6 of 6
dose: 200.0 mg/kg/injection, schedule: Q01DX009 (ip), vehicle: Klucel (hydroxypropylcellulose) (HPC)
  survivor count: 6 of 6

## Cn1cccc1/C=N/N1CC(=O)N(c2ccccc2)CC1=O
dose: 200.0 mg/kg/injection, schedule: Q01DX005 (ip), vehicle: saline with Tween-80
  survivor count: 1 of 6

## C=C(CBr)C(=O)OCC
[1]
  survivor count: 0 of 6
[2]
  survivor count: 0 of 6
[3]
  survivor count: 0 of 6
